Measured data: PubChem BioAssay AID720505 (Drosophila RNAi Screening Center, 2013)
The deposit covers about 20,000 reagents; below is an unselected part of those that have a named target and a result. Of all reagents, about 2,100 (10%) are marked active. 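Raw plate signals without normalisation; calls rest on control-based scores that were not deposited; replicate 2 separates called from uncalled poorly.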 Reagents against one gene are numbered here. Names joined by + are all predicted targets of the reagent. The record does not give: the amount of reagent, the time to read-out.

Test: 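Fly regulators or components of the CRAC channel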 (primary screen)
Cells: Drosophila S2R+ cells
Knock-down reagent: long dsRNA against Drosophila genes
Conditions: thapsigargin (2 µM) in calcium-free buffer to empty internal stores, then 2 mM calcium added back
Detection: 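Fluo-4 signal in 384-well plates read on a FLIPR after thapsigargin (2 µM, calcium-free) store depletion and 2 mM calcium add-back; unnormalised mean endpoint per well; screen run twice, selected wells retested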
Reading the numbers: calcium signal and retest calcium signal: higher = more calcium entry after store depletion
Rule for the call: 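Knock-downs counted as hits when calcium entry dropped relative to STIM1 positive and Rho1 negative controls present on each plate; roughly 1500 genes called, with reductions of differing size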
Calls: active = called as lowering calcium entry; inactive = not called

| gene knocked down | reagent | calcium signal, replicate 1 | calcium signal, replicate 2 | retest calcium signal, replicate 1 | retest calcium signal, replicate 2 | outcome |
| --- | --- | --- | --- | --- | --- | --- |
| CG5139 | 1 | 181 | 88.5 | – | – | inactive |
| CG42490 (retired record) | 1 | 74.3 | 115 | – | – | inactive |
| CG42758 | 1 | 85.8 | 119 | – | – | inactive |
| CG2790 | 1 | 92.6 | 119 | – | – | inactive |
| Pgam5-2 | 1 | 177 | 163 | – | – | inactive |
| CG31139 | 1 | 131 | 84.5 | – | – | inactive |
| eIF4E3 | 1 | 65.8 | 106 | – | – | active |
| CG18301 | 1 | 166 | 114 | – | – | inactive |
| Osi24 | 1 | 120 | 141 | – | – | inactive |
| CG6067 | 1 | 253 | 131 | – | – | inactive |
| pnut | 1 | 202 | 105 | – | – | inactive |
| CG7631 | 1 | 126 | 152 | – | – | inactive |
| Erk7 | 1 | 67.2 | 99.3 | – | – | active |
| Erk7 | 2 | 83.2 | 116 | – | – | inactive |
| Erk7 | 3 | 123 | 250 | – | – | inactive |
| CG3638 | 1 | 123 | 128 | – | – | inactive |
| Gclm | 1 | 216 | 296 | – | – | inactive |
| Gld2 | 1 | 224 | 166 | – | – | inactive |
| Gld2 | 2 | 138 | 178 | – | – | inactive |
| l(3)80Fg | 1 | 95.6 | 85.4 | – | – | inactive |
| l(3)80Fg | 2 | 90.1 | 208 | – | – | inactive |
| kst | 1 | 104 | 82.9 | – | – | inactive |
| Cht4 | 1 | 53.6 | 205 | – | – | inactive |
| CG30471 | 1 | 112 | 99.9 | – | – | inactive |
| futsch | 1 | – | – | – | – | inactive |
| futsch | 2 | 91.4 | 115 | 6760 | 138 | inactive |
| futsch | 3 | 68.9 | 94.6 | – | – | active |
| futsch | 4 | 94.4 | 104 | – | – | inactive |
| Ir84a | 1 | 132 | 122 | – | – | inactive |
| Drsl5 | 1 | 80.6 | 130 | – | – | inactive |
| CG9521 | 1 | 82 | 162 | – | – | inactive |
| JYalpha (retired record) + JYalpha | 1 | 141 | 69.3 | – | – | inactive |
| Ccp84Ac | 1 | 99 | 181 | – | – | inactive |
| CG6791 | 1 | 106 | 122 | – | – | inactive |
